Measurements from article PMC12077101.
These are yes or no findings as the source states them, for the method shown. Binding seen in cells or lysates may run through a third protein. Some entries that bind do so weakly or less than the wild type. For some assays here: Where a sequence is shown, tags or fusion partners need not be part of it.

By UniProt entry, the sequences of proteins in these tests, tags left out.
UniProt Q86WV6: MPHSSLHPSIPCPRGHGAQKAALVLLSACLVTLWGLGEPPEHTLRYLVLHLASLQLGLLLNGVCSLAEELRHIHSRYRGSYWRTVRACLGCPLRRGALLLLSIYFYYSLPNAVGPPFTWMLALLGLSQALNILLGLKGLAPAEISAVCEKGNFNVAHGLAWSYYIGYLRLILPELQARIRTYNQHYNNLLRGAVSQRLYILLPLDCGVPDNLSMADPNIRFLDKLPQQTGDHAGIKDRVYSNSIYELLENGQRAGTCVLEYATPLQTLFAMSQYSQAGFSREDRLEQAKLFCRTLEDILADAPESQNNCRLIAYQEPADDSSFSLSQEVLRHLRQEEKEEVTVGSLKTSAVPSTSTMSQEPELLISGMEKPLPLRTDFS

Tests used:
[1] = molecular target: T1, Flag-tagged AUP1 1-93 (transmembrane domain only) (human) (UniProt Q9Y679); assay: co-IP; HEK293T cells co-transfected with both tagged plasmids for 24 h; Pierce IP Lysis Buffer; anti-Flag antibody or normal IgG overnight at 4°C, beads 6 h, six washes with cold PBS; immunoblot
T1 sequence: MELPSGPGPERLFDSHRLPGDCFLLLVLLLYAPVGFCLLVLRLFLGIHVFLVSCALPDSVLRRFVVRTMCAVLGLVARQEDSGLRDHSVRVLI

[2] = molecular target: T2, Flag-tagged AUP1, full length, expressed in HEK293T cells (human) (UniProt Q9Y679); assay: as above
T2 sequence: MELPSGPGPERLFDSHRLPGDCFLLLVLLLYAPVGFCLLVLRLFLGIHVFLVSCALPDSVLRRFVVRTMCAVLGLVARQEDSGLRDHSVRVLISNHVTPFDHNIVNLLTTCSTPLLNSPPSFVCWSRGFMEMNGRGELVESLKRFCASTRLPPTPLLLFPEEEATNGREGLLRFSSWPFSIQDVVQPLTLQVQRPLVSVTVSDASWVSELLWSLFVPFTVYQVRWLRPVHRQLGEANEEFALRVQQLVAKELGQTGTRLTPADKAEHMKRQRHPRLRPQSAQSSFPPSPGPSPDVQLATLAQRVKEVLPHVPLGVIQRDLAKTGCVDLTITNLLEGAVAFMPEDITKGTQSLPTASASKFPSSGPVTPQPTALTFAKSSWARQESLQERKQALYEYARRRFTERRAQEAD

[3] = molecular target: T3, Flag-AUP1, full length, expressed in HeLa cells (human) (UniProt Q9Y679); assay: co-IP; HeLa cells transfected with a Flag-tagged plasmid for 24 h, partner endogenous; Pierce IP Lysis Buffer; anti-Flag antibody or IgG; immunoblot; in Fig. 2E cells were then transfected with HT-DNA for the indicated times (interaction substantially decreased)
T3 sequence: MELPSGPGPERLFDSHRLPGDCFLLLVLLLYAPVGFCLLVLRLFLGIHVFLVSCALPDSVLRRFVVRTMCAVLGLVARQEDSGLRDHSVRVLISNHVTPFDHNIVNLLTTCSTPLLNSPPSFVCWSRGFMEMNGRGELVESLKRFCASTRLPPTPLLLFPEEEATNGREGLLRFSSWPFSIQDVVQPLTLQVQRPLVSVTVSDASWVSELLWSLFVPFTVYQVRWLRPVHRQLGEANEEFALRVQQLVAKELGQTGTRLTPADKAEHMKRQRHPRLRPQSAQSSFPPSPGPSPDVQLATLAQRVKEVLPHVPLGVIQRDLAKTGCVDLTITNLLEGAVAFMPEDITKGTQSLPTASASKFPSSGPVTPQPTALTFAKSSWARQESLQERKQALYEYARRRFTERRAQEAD

[4] = molecular target: Flag-STING (stimulator of interferon genes), full length, expressed in HEK293T cells (human) (UniProt Q86WV6); assay: co-IP; HEK293T cells co-transfected with both tagged plasmids for 24 h; Pierce IP Lysis Buffer; anti-Flag antibody or normal IgG overnight at 4°C, beads 6 h, six washes with cold PBS; immunoblot
[5] = molecular target: Flag-STING, full length, expressed in HeLa cells (human) (UniProt Q86WV6); assay: co-IP; HeLa cells transfected with a Flag-tagged plasmid for 24 h, partner endogenous; Pierce IP Lysis Buffer; anti-Flag antibody or IgG; immunoblot; in Fig. 2E cells were then transfected with HT-DNA for the indicated times (interaction substantially decreased)

HA-tagged STING (pCDNA3.1-3×HA-TMEM173), expressed in HEK293T cells (from UniProt Q86WV6 1-379)
binding [1]: binds weakly
binding [2]: binds

endogenous STING of HeLa cells (from UniProt Q86WV6 1-379)
binding [3]: binds

B1: V5-AUP1 (ancient ubiquitous protein 1), full length, expressed in HEK293T cells (protein, UniProt Q9Y679 1-410)
chain: MELPSGPGPERLFDSHRLPGDCFLLLVLLLYAPVGFCLLVLRLFLGIHVFLVSCALPDSVLRRFVVRTMCAVLGLVARQEDSGLRDHSVRVLISNHVTPFDHNIVNLLTTCSTPLLNSPPSFVCWSRGFMEMNGRGELVESLKRFCASTRLPPTPLLLFPEEEATNGREGLLRFSSWPFSIQDVVQPLTLQVQRPLVSVTVSDASWVSELLWSLFVPFTVYQVRWLRPVHRQLGEANEEFALRVQQLVAKELGQTGTRLTPADKAEHMKRQRHPRLRPQSAQSSFPPSPGPSPDVQLATLAQRVKEVLPHVPLGVIQRDLAKTGCVDLTITNLLEGAVAFMPEDITKGTQSLPTASASKFPSSGPVTPQPTALTFAKSSWARQESLQERKQALYEYARRRFTERRAQEAD
binding [4]: binds

B2: endogenous AUP1 of HeLa cells (protein, UniProt Q9Y679 1-410)
chain: MELPSGPGPERLFDSHRLPGDCFLLLVLLLYAPVGFCLLVLRLFLGIHVFLVSCALPDSVLRRFVVRTMCAVLGLVARQEDSGLRDHSVRVLISNHVTPFDHNIVNLLTTCSTPLLNSPPSFVCWSRGFMEMNGRGELVESLKRFCASTRLPPTPLLLFPEEEATNGREGLLRFSSWPFSIQDVVQPLTLQVQRPLVSVTVSDASWVSELLWSLFVPFTVYQVRWLRPVHRQLGEANEEFALRVQQLVAKELGQTGTRLTPADKAEHMKRQRHPRLRPQSAQSSFPPSPGPSPDVQLATLAQRVKEVLPHVPLGVIQRDLAKTGCVDLTITNLLEGAVAFMPEDITKGTQSLPTASASKFPSSGPVTPQPTALTFAKSSWARQESLQERKQALYEYARRRFTERRAQEAD
binding [5]: binds
